Results as given in publication PMC12040169 (PLOS Biology, 2025).
Some of the results follow.

What follows are compounds tested on T1, CTL2-GFP (C. trachomatis L2/434/Bu, GFP-expressing). Settings: bulk GFP, single well; 28.5 h, 10 µM; inhibitor.
T1 construct: L2/434/Bu, GFP-expressing
Set-up: species or system HeLa; Intracellular C. trachomatis growth in HeLa cells, bulk GFP fluorescence relative to DMSO
With `O[C@@H]1C[C@@H](c2nc(-c3ccc4c(c3)OCO4)no2)N(Cc2cc3ccccc3o2)C1` [CBK288868] the “% of control remaining” value was 109.02%. With `CC(Cn1cccn1)NCC(=O)N(C)C1(C#N)CCCCC1` (stereo not drawn) [CBK305096] the “% of control remaining” value was 125.129%. `CCc1onc(C)c1C(=O)NC(Cc1ccsc1)c1nccs1` (stereo not drawn) [CBK285142] was tested, and the “% of control remaining” value was 104.774%. In the case of `CC(C)[C@@H](CO)Nc1nc(-c2cccc3ccccc23)cnc1N` [CBK063725], the “% of control remaining” value is reported as 179.072%. `CCN1CCC2CCC(C1)N2Cc1ccc(Oc2cnccn2)cc1` (stereo not drawn) [CBK304034] was tested, and the “% of control remaining” value was 107.612%. `C[C@@H](Nc1nccnc1-c1cccc(F)c1)c1ccccc1` [CBK036733] was tested, and the “% of control remaining” value was 83.1141%. For `CN(C)CCN(C)c1cncc(-c2cccc(C(F)(F)F)c2)n1` [CBK065584], the “% of control remaining” value was 121.519%. In the case of `Cc1ccc(CC(=O)Nc2nc(Cc3n[nH]c(=S)n3C)cs2)cc1` [CBK296766], the “% of control remaining” value is reported as 126.813%. With `CCC(C)C(NC(=O)c1ccccc1NC(=O)c1ccc(OC)cc1)C(=O)O` (stereo not drawn) [CBK296090] the “% of control remaining” value was 131.176%. `c1ccc2cc(-c3cnc(N4CCOCC4)c4nccn34)ccc2c1` [CBK091307] was tested, and the “% of control remaining” value was 115.081%. `O=S(=O)(c1ccccc1)N1CC2(CCNCC2)c2ccccc21` [CBK137413] was tested, and the “% of control remaining” value was 155.793%. In the case of `CSc1cccc(NC(=O)N2CCN(C(=O)C3CCCO3)CC2)c1` (stereo not drawn) [CBK043283], the “% of control remaining” value is reported as 80.4458%. `COc1c(C(N)=O)c(O)c(OC)c2occc12` [CBK016255] was tested, and the “% of control remaining” value was 121.191%. `Cc1c(NC(=O)CSc2nnc(-c3ccc4ccccc4n3)s2)c(=O)n(-c2ccccc2)n1C` [CBK269341] was tested, and the “% of control remaining” value was 150.21%. With `O=C(CC1(C(F)(F)F)NCCN1)c1cccc([N+](=O)[O-])c1` [CBK263443] the “% of control remaining” value was 123.865%. In the case of `CCOc1cc(C=O)ccc1OCc1c(C)no[n+]1[O-]` [CBK263449], the “% of control remaining” value is reported as 129.578%. With `FC(F)(F)c1nc2ccccc2nc1SCc1cccs1` [CBK103728] the “% of control remaining” value was 96.239%. For `Cc1ccccc1CN1CCC(O)(c2cccnc2F)CC1` [CBK284376], the “% of control remaining” value was 88.9487%. `CC1CCc2c(sc(NC(=O)Cn3cnc([N+](=O)[O-])n3)c2C(N)=O)C1` (stereo not drawn) [CBK263064] was tested, and the “% of control remaining” value was 110.539%. For `O=C(O)CC1(O)C(=O)N(Cc2ccccc2)c2ccccc21` (stereo not drawn) [CBK286673], the “% of control remaining” value was 132.171%. With `O=c1nc(NC2CCCCC2)sc2ncccc12` [CBK067024T] the “% of control remaining” value was 114.37%. `COc1cc(-c2cnc3[nH]c(=O)n(Cc4ccco4)c3n2)cc(OC)c1OC` [CBK064755] was tested, and the “% of control remaining” value was 159.859%. For `Cc1nn(C)cc1-c1cncn1CCOc1ccc(Cl)cc1` [CBK281508], the “% of control remaining” value was 140.84%. For `O=C1COc2ccccc2C/C=C/CC2(CCN(CC(=O)N3CCCC3)CC2)CN1` [CBK292126], the “% of control remaining” value was 106.256%. In the case of `Nc1c(Cc2c(Cl)cccc2Cl)c(=O)n2n1CCC2` [CBK088948], the “% of control remaining” value is reported as 103.167%. In the case of `OCC12COC3c4ccccc4C(OC1)N32` (stereo not drawn) [CBK006347], the “% of control remaining” value is reported as 114.717%. With `O=C(Cn1ncc2ccccc2c1=O)NNC(=S)NC1CC2CCC1C2` (stereo not drawn) [CBK267892] the “% of control remaining” value was 97.8145%. `CCCCC(c1cccnc1)N(C)C(=O)Cn1ccccc1=O` (stereo not drawn) [CBK306936] was tested, and the “% of control remaining” value was 115.395%. `CC1CN(Cc2nc3c(c(=O)n(C)c(=O)n3C)n2CCCc2ccccc2)CC(C)O1` (stereo not drawn) [CBK269349] was tested, and the “% of control remaining” value was 105.649%. In the case of `Clc1ccc(-n2ncc(-c3ccsc3)n2)cc1Cl` [CBK112843], the “% of control remaining” value is reported as 118.885%. For `COc1cc(-c2nc(C(C)=O)c(C)n2O)cc(OC)c1OC` [CBK270083], the “% of control remaining” value was 108.859%. In the case of `O=C(N[C@H]1C[C@H](c2nnc(CO)n2C2CC2)C1)c1ccc(Cl)c(F)c1` [CBK307093], the “% of control remaining” value is reported as 109.019%. For `O=C(O)C1CC(=O)N(Cc2ccccc2)C1c1ccccc1` (stereo not drawn) [CBK286876], the “% of control remaining” value was 113.192%. With `O=C(O)CCCC(=O)Nc1ccccc1C(=O)NCc1ccco1` [CBK299840] the “% of control remaining” value was 143.423%. With `C=CCNC(=O)N[C@H]1C[C@H]2C(=O)Nc3cc(Cl)ccc3C(=O)N2C1` [CBK289365] the “% of control remaining” value was 110.183%. For `CCCn1nccc1C(=O)NC1CCCN(Cc2cccc(OC)c2)C1` (stereo not drawn) [CBK306563], the “% of control remaining” value was 136.475%. With `O=C(c1cccnc1)C1CCN(C(=O)Cc2ccccc2Cl)CC1` [CBK283690] the “% of control remaining” value was 145.272%. In the case of `CC(C)(C)c1nnc(NCC2CCCCC2)s1` [CBK075043], the “% of control remaining” value is reported as 117.523%. In the case of `Cc1cc(C(=O)NCc2cccnc2N(C)C2CCCCC2)[nH]n1` [CBK306668], the “% of control remaining” value is reported as 106.289%. For `CCn1cc(S(=O)(=O)NCc2ccccc2F)cn1` [CBK270306], the “% of control remaining” value was 95.7074%. For `COc1ccc(N2CCN(c3cc(-c4ccccc4OCc4ccccc4)ncn3)CC2)cc1OC` [CBK091024], the “% of control remaining” value was 97.8699%. `CCOC(=O)CC(O)(c1ccc(OC)cc1)c1cc(C)no1` (stereo not drawn) [CBK023133] was tested, and the “% of control remaining” value was 117.719%. With `CN(C)CCN1CCN(c2cccc(-c3ccc(-c4ccccc4)cc3)n2)CC1` [CBK037610] the “% of control remaining” value was 129.653%. With `C=CCn1c(C)c(CN2CCc3c(nc(C)[nH]c3=O)C2)c2ccccc21` [CBK283990] the “% of control remaining” value was 146.194%. In the case of `O=C(NCc1ccc2c(c1)OCO2)C1CN(S(=O)(=O)c2ccccc2)CCN1S(=O)(=O)c1ccccc1` (stereo not drawn) [CBK267059], the “% of control remaining” value is reported as 183.483%. `O=C1c2ccccc2C2OCc3ccccc3N12` (stereo not drawn) [CBK109952] was tested, and the “% of control remaining” value was 124.237%. With `O=C(NCCCCn1ccnc1)c1noc2c1CCCC2` [CBK283208] the “% of control remaining” value was 124.189%. With `Cc1ccc2nc(C)cc(NCCO)c2c1` [CBK126909] the “% of control remaining” value was 73.5079%. With `OCCN1CC2(CCN(Cc3cccc4cccnc34)CC2)c2ccccc21` [CBK137014] the “% of control remaining” value was 118.238%. In the case of `O=C1S/C(=C/c2ccc(Cl)cc2)C(=O)N1c1ccc(F)cc1` [CBK113265], the “% of control remaining” value is reported as 98.0911%. In the case of `CN(C)CCN1C(=O)CCc2ccccc21` [CBK023390C], the “% of control remaining” value is reported as 138.231%. With `COC(=O)CCC(=O)N1CCC(Cn2cncn2)(C2CCCCC2)CC1` [CBK136810] the “% of control remaining” value was 134.68%. For `OC(Cc1ccccc1)c1cc2n(n1)CCN(Cc1ccsc1)C2` (stereo not drawn) [CBK307603], the “% of control remaining” value was 119.129%. In the case of `O=C(c1cccc([N+](=O)[O-])c1)N1CCN(S(=O)(=O)N2CCOCC2)CC1` [CBK267469], the “% of control remaining” value is reported as 110.272%. In the case of `O=C(N1CCC=C(F)C1)C12CCOCC1CN(c1ncccn1)C2` (stereo not drawn) [CBK304264], the “% of control remaining” value is reported as 104.088%. For `CN(C)c1ccc(-c2cc(N3CCN(S(=O)(=O)c4ccc(Cl)cc4)CC3)ncn2)cc1` [CBK091158], the “% of control remaining” value was 169.731%. In the case of `CN(C)Cc1cc(-c2ccccc2F)nn1CCNC(=O)C1CC1` [CBK282006], the “% of control remaining” value is reported as 141.957%. With `CSc1nsc(SCC(=O)c2cc3ccccc3oc2=O)n1` [CBK268833] the “% of control remaining” value was 126.826%. `CCC1C=CCC(C(=O)O)C1C(=O)Nc1ccc(C(=O)N2CCOCC2)cc1` (stereo not drawn) [CBK265798] was tested, and the “% of control remaining” value was 221.367%. With `CCOc1cccc(C(=O)NC(=S)Nc2nc(C)c(C(=O)OC)s2)c1` [CBK092056] the “% of control remaining” value was 108.852%. In the case of `CN1CCN(C(=O)C[C@@H]2CCNC[C@@H]2Cc2cc(CC3CCCCC3)on2)CC1` [CBK289151], the “% of control remaining” value is reported as 129.88%. In the case of `Cc1cc2c(s1)c1cnn(CC(=O)NC3CCCC3)c(=O)c1n2C` [CBK284189], the “% of control remaining” value is reported as 109.905%. `Cn1c(=O)c2c(nc(CN3CCC(Cc4ccccc4)CC3)n2CC(=O)c2ccccc2)n(C)c1=O` [CBK236846] was tested, and the “% of control remaining” value was 112.541%. For `Cc1ccccc1CNCCNCC(C)O` (stereo not drawn) [CBK268718C], the “% of control remaining” value was 104.856%. For `Cc1ccc(S(=O)(=O)N2CCC(N3CCN(CCO)CC3)CC2)cc1` [CBK264656G], the “% of control remaining” value was 100%. `O=C(Nc1ccccc1F)c1cc(Cl)sc1Cl` [CBK085969] was tested, and the “% of control remaining” value was 141.874%. For `CNc1c(C)cc([N+](C)(C)C)cc1C` [CBK261007I], the “% of control remaining” value was 100%. With `C=CCN1C(=O)C2(CC(=O)N(CCC3CCCCC3)C2=O)c2ccccc21` (stereo not drawn) [CBK075160] the “% of control remaining” value was 95.1207%. `FC(F)(F)c1ccc(OCCCc2ccncc2)nc1` [CBK115791] was tested, and the “% of control remaining” value was 98.5455%. `COCCOc1cccc(OCCOc2nccnc2N2CCNC[C@H]2C)c1` [CBK048435] was tested, and the “% of control remaining” value was 105.069%. In the case of `O=C(Nc1ccc(S(=O)(=O)Nc2ncccn2)cc1)c1ccc(N2C(=O)c3ccccc3C2=O)cc1` [CBK264868], the “% of control remaining” value is reported as 102.784%. `CC(C)(C)C(=O)Nc1ccc(S(=O)(=O)NC2CCCCC2)cc1` [CBK268783] was tested, and the “% of control remaining” value was 117.922%. `CC(C)C1C(=O)Nc2ccccc2N1C(=O)NCCC(=O)O` (stereo not drawn) [CBK286659] was tested, and the “% of control remaining” value was 129.005%. With `CCn1cc(-c2cncn2CC(C)N2CCCCC2)cn1` (stereo not drawn) [CBK281556] the “% of control remaining” value was 103.083%. For `O=C(O)CC(C(=O)O)c1ccc(Cl)cc1Cl` (stereo not drawn) [CBK268523], the “% of control remaining” value was 136.79%. With `CCCCOc1ccc(C(=O)N(C)c2cnn(C)c2)c(O)c1` [CBK306167] the “% of control remaining” value was 133.463%. `COc1cc(F)ccc1-c1ccc(NS(C)(=O)=O)c2ccccc12` [CBK083744] was tested, and the “% of control remaining” value was 97.9864%. For `C[C@@H]1C(=O)O[C@H]2[C@H]1CC[C@@]1(C)Cc3sc(NC(=O)CN(C)C)nc3[C@@H](C)[C@H]21` [CBK289431], the “% of control remaining” value was 128.289%. In the case of `O=C(O)CCSC(CC(=O)c1ccccc1)c1ccc(Cl)cc1` (stereo not drawn) [CBK077251], the “% of control remaining” value is reported as 102.901%. With `O=c1[nH]c(=S)c2c(n1CCc1ccccn1)CCCC2` [CBK023951G] the “% of control remaining” value was 127.764%. `NC(=O)CN1CCN(c2nccnc2Oc2ccc(F)cc2)CC1` [CBK083018T] was tested, and the “% of control remaining” value was 97.8623%.
